Results as given in US7585517B2, “Transscleral delivery” (Macusight, Inc., priority 2003, dated 2009).
At least one compound was matched to its structure with a doubt left.

Tests used:
CNV [1] = details: rat and mice models; cited from earlier work
CNV [2] = details: to inhibit CNV in a human; stated as demonstrated, no experiment given; cited from earlier work
laser induced CNV [3] = assay: Reversal of laser induced CNV by periocular rapamycin (Example 2); assay type: in vivo, mice; details: established CNV; FIG. 2
Experimental: Fifteen mice had Bruch's membrane ruptured with laser photocoagulation at 3 locations in each eye. After one week, 5 mice were perfused with fluorescein-labeled dextran and the baseline area of CNV was measured in each eye. At that point, the remaining mice were started on daily periocular injections of 5 μl of corn oil containing 5 μg of rapamycin in one eye and corn oil alone in the fellow eye. After one more week, the mice were perfused with fluorescein-labeled dextran and CNV areas were measured in each eye on choroidal flat mounts. The corn oil solution used is approximately a saturated solution. It is expected that lower doses will be used to deliver therapeutically effective amounts of rapamycin.
Baseline lesion CNV area was 0.0105 mm^2 with a standard deviation of 0.0037.

laser induced CNV [4] = assay: Inhibition of laser induced CNV by periocular rapamycin (Example 1); assay type: in vivo, mice; details: p=0.0011 by Mann-Whitney U test
Experimental: CNV may be induced by rupturing Bruch's membrane with laser. Fifteen mice were given daily periocular injections of 5 micrograms of rapamycin in corn oil vehicle in one eye. After two days of treatment, Bruch's membrane was ruptured by laser at three sites in each eye. The fellow eye served as control and was treated with periocular injections of corn oil only. Two weeks after laser rupture, 10 mice were perfused with fluorescein-labeled dextran and CNV areas were measured in each eye on choroidal flat mounts. The remaining mice had retinas and RPE/choroid dissected and stored at −70° C. for tissue therapeutic agents level measurement.

CO[C@H]1C[C@@H]2CC[C@@H](C)[C@@](O)(O2)C(=O)C(=O)N2CCCC[C@H]2C(=O)O[C@H]([C@H](C)C[C@@H]2CC[C@@H](O)[C@H](OC)C2)CC(=O)[C@H](C)/C=C(\C)[C@@H](O)[C@@H](OC)C(=O)[C@H](C)C[C@H](C)/C=C/C=C/C=C/1C [rapamycin]
inhibition of CNV (CNV [1]): shown to inhibit CNV | inhibiting amount, concentration at the tissue level (CNV [2]): about 10 ng/ml | reduction in CNV area (regression) (laser induced CNV [3]): substantial reduction in CNV area | reduction in CNV size versus vehicle alone (laser induced CNV [4]): statistically significant reduction in CNV size
